The text below walks through data of PMC4106877.

Amino acid sequences for entries named in this document (tags omitted).
UniProt P0A3F4: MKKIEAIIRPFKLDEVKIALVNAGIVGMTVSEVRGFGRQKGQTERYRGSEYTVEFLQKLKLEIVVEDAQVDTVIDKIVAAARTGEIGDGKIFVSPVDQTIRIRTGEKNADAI

No constants are given. Whether binding was seen depends on the method and setting. In cells and extracts the contact can be indirect. Some entries that bind do so weakly or less than the wild type.

The assay addresses T1, NAGK-FL25-C (UniProt Q6V1L5).
T1 sequence: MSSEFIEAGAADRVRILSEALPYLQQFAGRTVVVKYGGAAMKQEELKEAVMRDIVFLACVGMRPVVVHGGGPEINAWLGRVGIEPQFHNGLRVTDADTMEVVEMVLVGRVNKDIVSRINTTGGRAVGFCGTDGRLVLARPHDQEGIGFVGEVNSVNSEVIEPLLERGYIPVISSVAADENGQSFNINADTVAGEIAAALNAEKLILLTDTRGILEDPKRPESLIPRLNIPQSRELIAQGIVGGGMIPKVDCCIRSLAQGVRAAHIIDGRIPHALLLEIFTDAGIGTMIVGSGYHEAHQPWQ
Briefly: FRET or BRET; FRET ratio (525 nm / 475 nm emission) of NAGK-FL25-C and PII-ST-V incubated together in a reaction mix. ATP was present (0.1 mM, 0.075 mM or 2 mM, depending on the panel). Effectors (2-OG, ADP, other metabolites) were added to dissociate the complex. Triplicates.

Regarding PII-ST-V (from UniProt P0A3F4 1-112), the binding result is recorded as “binds”.
